Laboratory results as given in PubChem BioAssay AID2685 (National Center for Advancing Translational Sciences (NCATS), 2010).
The other results are listed elsewhere or left out. These are further read-outs of the screen, such as a control signal, another cell line or another target. No call is given for them. Most of these compounds were active or inconclusive in the main read-out, so they are no random draw. The note in brackets gives the kind of curve behind each potency; many fits are weak.

Assay: qHTS Assay for Lipid Storage Modulators in Drosophila S3 Cells;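 as to cell number change: cells counted by Cell Tracker Red CMTPX staining in the red channel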
Conditions: BODIPY lipid droplet fluorescence, 18-24 h; for cell number change: measured here: cell count max response, cells fed with added oleic acid
How it was run: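 Drosophila S3 cells loaded with oleic acid (400 uM, as added) and compounds at several concentrations; lipid droplets imaged by 488-nm laser-scanning cytometry, 500–530 nm intensity and object ratio to cell channel. Percent activity normalized to 20 uM Triacsin C.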

[1] = measured here: cell number channel AC50, cells fed with added oleic acid
[2] = measured here: lipid fluorescence (Fed channel) AC50, cells fed with added oleic acid

Structure (SMILES)	AC50 [1]	AC50 [2]	cell number change
CCc1noc(C)c1C(=O)Nc1nc(-c2ccc(OC)cc2OC)cs1	1.16 µM [rising, partial curve]	2.06 µM [rising, partial curve]	
C[C@H]1[C@H](C)CC[C@]2(C)CC[C@]3(C)C(=CC(=O)C4[C@@]5(C)CC[C@H](O)C(C)(C)C5CC[C@]43C)[C@H]12 (stereo partly drawn)	2.06 µM [rising, partial curve, poor fit]	0.259 µM [rising, full curve, poor fit]	14.3%
O=S1(=O)CCOC[C@H](c2ccccc2)N1Cc1cccc(Cl)c1			14.4%
COc1ccc(NC(=O)c2cccc(S(=O)(=O)N3CCCCCC3)c2)cc1		1.84 µM [falling, full curve]	27.8%
CCCCc1nc2cc(C(=O)NC3CCOC(C)(C)C3)ccc2o1 (stereo not drawn)		29.1 µM [rising, single point]	-2.27%
O=C(COc1ccc(Cl)cc1Cl)NCc1ccncc1		9.2 µM [rising, partial curve, poor fit]	-29%
O=C(c1ccc(NC(=O)C2(c3ccccc3)CCOCC2)cc1)N1CCOCC1		1.84 µM [falling, partial curve]	
COc1ccccc1N1CCN(C2CCCC(C)C2)CC1 (stereo not drawn)	6.51 µM [falling, full curve, poor fit]		-37.6%
C/C(=N\Nc1nnc2c3ccccc3n(C)c2n1)c1ccc(C)o1	1.64 µM [rising, full curve]	29.1 µM [rising, single point]	30.5%
O=C(c1ccccc1)c1cnc(-c2ccc(Cl)cc2)s1		29.1 µM [rising, single point]	1.44%
CCn1c(=O)cc(OCC(=O)NCCC(C)C)c2ccccc21		16.4 µM [rising, single point]	0.368%
CCCCN(CCCC)S(=O)(=O)c1ccc(NC(=O)c2cccs2)cc1	29.1 µM [rising, single point]	0.58 µM [rising, single point]	47.1%
COc1ccc(Br)cc1CNC(=O)C1CCN(S(=O)(=O)N2CCCC2)CC1		32.6 µM [falling, single point]	-22.4%
Cc1cc2oc(=O)cc(CN(C)Cc3ccccc3F)c2cc1Cl	32.6 µM [rising, single point]		31%
CCC(=O)Oc1oc(-c2ccccc2)nc1C=Nc1ccccc1OC		0.0058 µM [falling, full curve, poor fit]	-67.1%
CCOc1ccc(Cl)cc1S(=O)(=O)N1CCC(C(=O)NCc2cccnc2)CC1	0.58 µM [rising, full curve, poor fit]		19.3%
COc1ccc(C)cc1NC(=O)CC(NC(C)=O)c1ccccc1 (stereo not drawn)		0.146 µM [falling, partial curve]	-18%
CN(C(=O)c1ccc([N+](=O)[O-])cc1)c1ccccc1C(=O)NCc1ccccc1		16.4 µM [rising, single point]	-7.18%
CC1CCc2sc3ncnc(N4CCN(C)CC4)c3c2C1 (stereo not drawn)		0.82 µM [rising, single point]	-22.3%

Structure (SMILES)	AC50 [1]	AC50 [2]	cell number change
Cc1cc(C)n(-c2nnc(C)n2/N=C/c2ccccc2O)n1		20.6 µM [falling, partial curve]	
COc1ccc(NC(=O)COc2ccccc2)cc1Cl	0.0651 µM [rising, full curve, poor fit]		6.45%
CC(=O)Nc1ccc(C(=O)CSc2nnnn2C(C)C)cc1			-6.87%
Cc1ccc(N(CC(=O)NCC2CCCO2)S(C)(=O)=O)cc1Cl (stereo not drawn)		29.1 µM [falling, single point]	13.7%
COc1ccc(CN2CCNC(=O)C2CC(=O)N(C)Cc2nccs2)cc1OC (stereo not drawn)		7.08 µM [rising, full curve, poor fit]	41%
CC1(C)Cc2ccccc2-c2nnc(SCC(=O)Nc3ccc4c(c3)OCO4)n21	4.61 µM [falling, full curve]	0.411 µM [falling, partial curve, poor fit]	-199%
O=C(Nc1ccncc1)c1ccc(Cl)c(S(=O)(=O)N2CCCC2)c1	18.4 µM [rising, partial curve]		143%
O=C(N[C@@H](Cc1ccccc1)C(=O)NC1CC1)c1ccc(Cl)cc1		6.51 µM [falling, partial curve, poor fit]	28.2%
O=C(N/N=C/c1ccccc1F)c1cc2c(ccc3ccccc32)o1		0.82 µM [rising, full curve]	-3.68%
CC(=O)Nc1ccc(S(=O)(=O)NCC(=O)OCC(=O)N2CCCCCC2)cc1		1.46 µM [rising, partial curve]	0.376%
NC(=O)NC(=O)COC(=O)c1ccccc1Oc1ccccc1			-0.408%
COc1cccc(/C=C2\SC(=S)N(CC(=O)N(C)C3CCS(=O)(=O)C3)C2=O)c1 (stereo not drawn)		29.1 µM [falling, single point]	0.382%
COc1ccc([C@H]2CC(=O)C=C(c3cccc(Br)c3)C2)cc1		0.731 µM [falling, single point]	5.37%
CCOc1cc(C2C(C(=O)O)c3cc(OCC)c(OCC)cc3C(=O)N2C)ccc1O (stereo not drawn)	29.1 µM [falling, single point]	29.1 µM [falling, single point]	-146%
CCc1nc(N2CCN(CC(=O)NCC3CCCO3)CC2)c(C#N)c2c1COC(C)(C)C2 (stereo not drawn)	0.103 µM [rising, full curve]	29.1 µM [rising, single point]	
NC(=O)COC(=O)c1cccnc1Nc1ccccc1F			18.9%
Cc1c(C(=O)Nc2c3c(nn2C(C)(C)C)CS(=O)(=O)C3)cccc1[N+](=O)[O-]	8.2 µM [falling, partial curve, poor fit]		-33.6%
CCOc1cc(CO)cc(Br)c1OCC(=O)Nc1ccccc1C			12.3%
COC(=O)c1cc(NS(=O)(=O)c2ccc(OC)c(OC)c2)ccc1Cl			-22.4%

Look-ups from the results shown.
cell number change with `O=C(N/N=C/c1ccccc1F)c1cc2c(ccc3ccccc32)o1` is entered as -3.68%
cell number change with `COC(=O)c1cc(NS(=O)(=O)c2ccc(OC)c(OC)c2)ccc1Cl` is entered as -22.4%
cell number change with `NC(=O)COC(=O)c1cccnc1Nc1ccccc1F` is entered as 18.9%
